Assay results reported in publication PMC8038991, “R-catcher, a potent molecular tool to unveil the arginylome” (Cellular and Molecular Life Sciences: CMLS, 2021).

Chains of the proteins cited; added tags and fusions are not shown. Lines headed by an entry give the natural chain unless they say otherwise; changes in a name come on top. A line that says so, or that is headed by a name, gives the form on record, which may keep a tag or linker.
R-PDI detected in the preliminary N-terminal enrichment experiments (P07237, form named): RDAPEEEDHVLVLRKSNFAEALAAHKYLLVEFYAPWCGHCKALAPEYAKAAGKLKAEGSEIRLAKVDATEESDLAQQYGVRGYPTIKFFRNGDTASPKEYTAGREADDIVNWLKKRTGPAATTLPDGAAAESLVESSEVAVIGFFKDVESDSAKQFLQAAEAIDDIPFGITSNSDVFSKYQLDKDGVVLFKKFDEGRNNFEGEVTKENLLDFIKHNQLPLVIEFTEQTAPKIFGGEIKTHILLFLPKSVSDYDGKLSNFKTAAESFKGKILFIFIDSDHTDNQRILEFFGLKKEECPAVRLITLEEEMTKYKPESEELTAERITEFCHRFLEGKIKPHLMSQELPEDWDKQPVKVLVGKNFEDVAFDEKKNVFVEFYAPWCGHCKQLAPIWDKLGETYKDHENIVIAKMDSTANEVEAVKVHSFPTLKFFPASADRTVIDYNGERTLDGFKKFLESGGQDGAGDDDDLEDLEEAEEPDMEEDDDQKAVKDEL

Target: R-catcher (Twin StrepII-His6-ZZ_(122-175)^N132D) (human) (UniProt Q13501)
Experiment: affinity purification with mass spectrometry; preliminary result: enrichment of protein N-termini after R-catcher pull-down; no details; only the target purified

binding: binds
Substance: R-PDI detected in the preliminary N-terminal enrichment experiments (from UniProt P07237 18-508)

Results are given in words; binding and its absence hold for the method and conditions named. In cells and extracts the contact can be indirect. These calls come from enrichment with a bait or labelling near it, and not all partners need be listed.
